# Results of single-concentration screens

Amino acid sequences for entries named in this document (tags omitted). Residues count along the entry.
UniProt A4I591, 1-473: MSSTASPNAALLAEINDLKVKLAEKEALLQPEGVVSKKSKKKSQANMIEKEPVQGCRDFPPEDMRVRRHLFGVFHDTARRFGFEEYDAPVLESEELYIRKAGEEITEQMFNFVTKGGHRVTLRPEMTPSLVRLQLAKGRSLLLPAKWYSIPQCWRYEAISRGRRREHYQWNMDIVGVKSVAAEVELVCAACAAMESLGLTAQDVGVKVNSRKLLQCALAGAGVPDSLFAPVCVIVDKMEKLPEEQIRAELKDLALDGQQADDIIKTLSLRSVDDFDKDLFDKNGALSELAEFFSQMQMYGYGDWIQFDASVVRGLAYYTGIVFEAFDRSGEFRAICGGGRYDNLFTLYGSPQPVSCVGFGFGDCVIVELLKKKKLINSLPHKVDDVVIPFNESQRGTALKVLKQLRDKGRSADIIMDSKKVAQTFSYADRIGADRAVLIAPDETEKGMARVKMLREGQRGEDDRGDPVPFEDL

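Histidine-tRNA ligase, Leishmania infantum (UniProt A4I591). Enzyme assay of histidyl-tRNA synthetase; the read-out is not stated. Tested at 30 µM. Higher reads as stronger inhibition (inferred: compounds with an IC50 in retests scored well above the rest). The assay is labelled LdHisRS but filed under L. infantum. Size under these conditions: about 69,000 compounds, about 410 of them at 50% or above in at least one test.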

The filed quantity is “Percent Effect” (%). The record does not define 0% and 100%; most values in the screen are far below 50% and negative numbers occur (in some assays of this library far below -100). The compounds are a random part of those screened.

Result for CC(=O)N1CC2(CCCN2Cc2ccc(Cl)cc2)Cc2ccccc21 (stereo not drawn) was 24.83%. c1csc(CN2CCC3(CC2)CCN(CC2CCOCC2)C3)n1 gave 10.53%. CC(=O)N1CCC(N2CCOC[C@H]2c2nc(C(C)(C)C)c[nH]2)CC1 gave 22.97%. For O=C(CCOCC(F)(F)F)N1CCCC1c1noc(C2CC2)n1 (stereo not drawn) the result was 14.04%.

Result for O=C(O)c1csc(S(=O)(=O)Nc2c(F)cccc2-n2cccn2)c1 was 20.54%. For COCc1cnc2n1CCN(C(=O)c1ocnc1C)C2C (stereo not drawn) the result was -3.636%. CCOc1cc(CNC(=O)CNC(=O)CC2CCCCC2)ccn1 gave 20.35%. With CNC(=O)[C@H]1C[C@@H]2CN(C(=O)Nc3ccccc3)C[C@H]1O2 the screen gave 17.95%.

With C1CN(c2nc(C3CC3)no2)CCN(C2CCOCC2)C1 the screen gave 6.897%. For CCCNC(=O)CN1CCC(NCc2csc(C(C)C)n2)CC1 the result was 2.041%. For CC(=O)N1CCc2[nH]nc(C(=O)N3CC=CC3)c2C1 the result was 16%. With Cc1noc(NCc2cn(C)nc2-c2cccnc2)n1 the screen gave 8.696%.

Cc1noc(-c2ccc(N3CCN(Cc4nccn4C)CC3)nc2)n1 read 15.05%. With COc1cccc(-c2ncc(CN3CC[C@H]4CC[C@@H](C3)N4)s2)c1 the screen gave 15.56%. Result for CC1(C(N)=O)CN(CC2CCC2)CCO1 (stereo not drawn) was 5.634%. Result for Cn1cc(CN2CC[C@@H]3[C@@H](CCC(=O)N3CCC3=CCCCC3)C2)cn1 was -30.48%.

With CC(C)c1cc(NCc2csc(N(C)C)n2)nc(N)n1 the screen gave 17.65%. With CCCC(=O)N1CCN(Cc2cc(-c3ccncc3)nn2C)CC1 the screen gave 11.46%. With Cc1cc(CN(Cc2cccs2)CC2CCCO2)no1 (stereo not drawn) the screen gave -2.703%. CCc1ncc2c(n1)CN(c1cc(NCCO)nc(N)n1)C2 gave 26.55%.

Result for CN(C)[C@H]1CN(C(=O)CCCc2ccc(F)cc2)C[C@@H]1C1CC1 was 6.557%. Result for Cc1nc2ccc(C(=O)N3CCN(CCO)[C@@H]4CS(=O)(=O)C[C@@H]43)cc2o1 was 10.32%. Result for CCc1ccccc1OC1CN(C(=O)c2sccc2N)C1 was 12%. For CCCc1nc(C(=O)N[C@H]2COC[C@@H]2N2CCN(C)CC2)cs1 the result was 17.65%.

Result for CSc1cccc(CN(C)C(=O)C2CC(=O)N(CCN(C)C)C2)c1 (stereo not drawn) was 16.5%. c1cc2n(n1)CC(CNCc1ccc(OC3CCCC3)nc1)CN2 (stereo not drawn) read 15.65%. N#Cc1ncn(CC(=O)Cc2c(F)cccc2Cl)n1 gave 36.14%. For Cc1nc(CN2CCC3(CC2)C(=O)N(C)CCN3C)cs1 the result was 11.54%.

Result for COCCCn1ccc(NC(=O)NCCCNc2ccccc2)n1 was 5.714%. With c1cc(CNCc2ccc3c(c2)CCO3)cc(N2CCOCC2)n1 the screen gave 11.32%. COCc1ccccc1C(=O)OCc1noc(C)n1 gave -3.529%. Cc1ncc(C(=O)N2C[C@H]3CC[C@@H]2CN(S(=O)(=O)N(C)C)C3)c(C)n1 read 14.56%.

With COCCN1CCCC(c2nccnc2Nc2nc(C)cs2)C1 (stereo not drawn) the screen gave 10.14%. Result for CCOC1CC2(CCN(Cc3cnn(C)c3)CC2)c2ccc(C)cc21 (stereo not drawn) was 18%. Result for CC(=O)N1CCCC1c1nc(CN(C)C(=O)C(C)C)cc(N(C)C)n1 (stereo not drawn) was 5.369%. With Cc1cncc(NCC(O)c2ccco2)n1 (stereo not drawn) the screen gave 4.478%.

With Cc1ccc(S(=O)(=O)N(C)CC(N)=O)c(Cl)c1 the screen gave 17.74%. N#Cc1ccccc1N1CC2(CCCCN2CC2CC2)CC1=O (stereo not drawn) read 24.79%. With COc1ccc(OC)c2c(C)cc(N(CCO)CCO)nc12 the screen gave 14.29%. With CCNC(=O)C1CN(Cc2c(-c3cc(C)on3)nn(C)c2Cl)CCO1 (stereo not drawn) the screen gave 8.333%.

For CN1CCCCc2c1nc1c(c2N)CCC1.O=C(O)c1cc([N+](=O)[O-])ccc1Cl the result was 12.09%. O=C(CCN1CCCCC1)N1CCC(Cc2ccc(CO)cc2)C1 (stereo not drawn) read 21.21%. O=C(NCC(F)F)c1ccc(S(=O)(=O)NCCc2c[nH]cn2)cc1 read 14.75%. CN(CC(O)C1CC1)C(=O)Nc1cc(F)cc(Br)c1 (stereo not drawn) gave 16.67%.

Cc1nc(CC(=O)NCc2csc(N3CCCC3)n2)cs1 read 34.33%. O=C1NCCO[C@H]2CN(C(=O)Cc3ccco3)CC[C@@H]12 read 18%. For Cc1ncc(CNCC2CCC(C(N)=O)CC2)n1-c1ccccc1 (stereo not drawn) the result was 7.895%.

Once more, the final 5:

| Compound | Percent Effect |
|---|---|
| `O=C(NCC(F)F)c1ccc(S(=O)(=O)NCCc2c[nH]cn2)cc1` | 14.75 |
| `CN(CC(O)C1CC1)C(=O)Nc1cc(F)cc(Br)c1` (stereo not drawn) | 16.67 |
| `Cc1nc(CC(=O)NCc2csc(N3CCCC3)n2)cs1` | 34.33 |
| `O=C1NCCO[C@H]2CN(C(=O)Cc3ccco3)CC[C@@H]12` | 18 |
| `Cc1ncc(CNCC2CCC(C(N)=O)CC2)n1-c1ccccc1` (stereo not drawn) | 7.895 |

Source: ChEMBL document CHEMBL3988442, “University of Dundee, Small-Polar-MMV Screening Library” (2021).